Measured values taken from the supplement of paper PMC10849652.
This is one part of the list.

Amino acid sequences for entries named in this document (tags omitted). A change or cut given only in a name is not applied to a line headed by its entry.
UniProt Q12981: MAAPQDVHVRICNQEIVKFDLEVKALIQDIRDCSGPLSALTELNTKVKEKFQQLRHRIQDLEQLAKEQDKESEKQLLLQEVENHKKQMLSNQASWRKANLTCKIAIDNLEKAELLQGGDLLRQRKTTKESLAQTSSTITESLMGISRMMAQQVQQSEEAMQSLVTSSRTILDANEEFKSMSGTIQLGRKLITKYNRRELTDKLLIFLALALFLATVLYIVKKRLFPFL
UniProt Q9HCU9: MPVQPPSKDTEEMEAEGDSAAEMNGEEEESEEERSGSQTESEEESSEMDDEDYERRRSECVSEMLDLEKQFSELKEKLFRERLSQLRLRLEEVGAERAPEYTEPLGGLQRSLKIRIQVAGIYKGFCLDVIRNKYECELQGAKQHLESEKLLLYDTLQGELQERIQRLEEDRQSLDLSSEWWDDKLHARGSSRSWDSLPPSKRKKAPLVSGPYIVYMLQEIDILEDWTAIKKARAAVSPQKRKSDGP
UniProt Q9UL15: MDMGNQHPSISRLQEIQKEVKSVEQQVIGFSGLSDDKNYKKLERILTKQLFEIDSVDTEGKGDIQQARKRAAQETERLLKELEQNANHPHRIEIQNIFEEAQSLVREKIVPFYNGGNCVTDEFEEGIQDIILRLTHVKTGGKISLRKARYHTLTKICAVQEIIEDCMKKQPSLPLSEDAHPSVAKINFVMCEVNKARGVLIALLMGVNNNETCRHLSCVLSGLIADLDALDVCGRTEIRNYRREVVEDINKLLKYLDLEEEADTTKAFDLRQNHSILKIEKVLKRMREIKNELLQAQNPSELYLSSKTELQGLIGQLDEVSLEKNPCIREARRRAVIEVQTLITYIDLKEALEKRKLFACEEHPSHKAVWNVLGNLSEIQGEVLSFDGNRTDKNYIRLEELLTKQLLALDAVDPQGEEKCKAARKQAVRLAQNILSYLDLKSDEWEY
UniProt Q14137: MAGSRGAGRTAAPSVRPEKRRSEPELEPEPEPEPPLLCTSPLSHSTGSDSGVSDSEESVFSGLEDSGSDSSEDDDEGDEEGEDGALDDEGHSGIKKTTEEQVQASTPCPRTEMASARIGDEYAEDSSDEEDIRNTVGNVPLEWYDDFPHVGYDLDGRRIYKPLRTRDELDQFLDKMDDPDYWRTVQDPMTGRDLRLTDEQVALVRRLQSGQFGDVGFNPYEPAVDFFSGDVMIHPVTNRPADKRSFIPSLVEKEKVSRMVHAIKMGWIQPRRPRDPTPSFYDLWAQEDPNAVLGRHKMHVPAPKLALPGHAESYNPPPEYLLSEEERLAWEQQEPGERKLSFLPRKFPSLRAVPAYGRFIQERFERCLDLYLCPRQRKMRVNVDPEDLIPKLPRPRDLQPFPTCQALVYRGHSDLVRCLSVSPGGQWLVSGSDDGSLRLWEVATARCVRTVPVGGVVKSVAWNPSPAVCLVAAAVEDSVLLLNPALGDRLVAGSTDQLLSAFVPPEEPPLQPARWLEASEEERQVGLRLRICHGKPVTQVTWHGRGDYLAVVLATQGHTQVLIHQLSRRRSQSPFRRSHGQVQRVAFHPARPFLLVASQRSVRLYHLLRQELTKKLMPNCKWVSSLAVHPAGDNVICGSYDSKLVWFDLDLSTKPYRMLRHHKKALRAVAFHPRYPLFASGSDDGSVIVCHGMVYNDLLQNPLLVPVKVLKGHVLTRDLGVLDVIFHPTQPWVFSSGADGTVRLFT
UniProt Q8TD16, whole entry, looked up: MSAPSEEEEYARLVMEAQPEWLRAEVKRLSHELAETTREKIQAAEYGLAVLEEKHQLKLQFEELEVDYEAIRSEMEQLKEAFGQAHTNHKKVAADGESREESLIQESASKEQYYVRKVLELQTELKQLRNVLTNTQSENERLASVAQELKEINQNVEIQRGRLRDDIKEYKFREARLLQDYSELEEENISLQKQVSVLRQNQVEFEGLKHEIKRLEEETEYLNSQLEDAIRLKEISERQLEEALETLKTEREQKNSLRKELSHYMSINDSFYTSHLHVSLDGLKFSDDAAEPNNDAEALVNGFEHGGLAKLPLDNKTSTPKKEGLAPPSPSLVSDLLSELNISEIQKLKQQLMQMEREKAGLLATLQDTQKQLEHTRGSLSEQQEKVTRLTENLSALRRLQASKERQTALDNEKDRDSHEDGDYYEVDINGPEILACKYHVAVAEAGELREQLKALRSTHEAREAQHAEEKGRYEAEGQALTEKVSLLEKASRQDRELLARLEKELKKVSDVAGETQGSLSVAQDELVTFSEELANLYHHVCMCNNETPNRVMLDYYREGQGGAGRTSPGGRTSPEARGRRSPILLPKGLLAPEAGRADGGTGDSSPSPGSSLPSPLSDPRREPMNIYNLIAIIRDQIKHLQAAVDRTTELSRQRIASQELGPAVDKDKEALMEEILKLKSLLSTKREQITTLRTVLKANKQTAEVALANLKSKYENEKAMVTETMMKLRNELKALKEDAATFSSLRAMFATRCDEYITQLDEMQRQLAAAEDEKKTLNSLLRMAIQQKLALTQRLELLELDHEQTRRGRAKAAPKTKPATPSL
UniProt P12694: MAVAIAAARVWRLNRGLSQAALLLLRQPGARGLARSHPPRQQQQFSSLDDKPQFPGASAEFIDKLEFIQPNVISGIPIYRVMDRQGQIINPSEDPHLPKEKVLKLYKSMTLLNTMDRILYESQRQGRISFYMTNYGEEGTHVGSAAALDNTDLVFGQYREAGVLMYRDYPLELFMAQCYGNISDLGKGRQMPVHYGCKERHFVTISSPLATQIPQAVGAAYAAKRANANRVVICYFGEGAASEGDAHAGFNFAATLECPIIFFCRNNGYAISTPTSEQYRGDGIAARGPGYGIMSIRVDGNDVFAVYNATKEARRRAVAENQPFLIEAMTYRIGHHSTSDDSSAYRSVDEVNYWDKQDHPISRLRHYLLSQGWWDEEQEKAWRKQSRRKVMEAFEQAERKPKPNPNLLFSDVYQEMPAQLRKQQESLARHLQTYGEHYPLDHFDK
UniProt Q9BXK5, whole entry, looked up: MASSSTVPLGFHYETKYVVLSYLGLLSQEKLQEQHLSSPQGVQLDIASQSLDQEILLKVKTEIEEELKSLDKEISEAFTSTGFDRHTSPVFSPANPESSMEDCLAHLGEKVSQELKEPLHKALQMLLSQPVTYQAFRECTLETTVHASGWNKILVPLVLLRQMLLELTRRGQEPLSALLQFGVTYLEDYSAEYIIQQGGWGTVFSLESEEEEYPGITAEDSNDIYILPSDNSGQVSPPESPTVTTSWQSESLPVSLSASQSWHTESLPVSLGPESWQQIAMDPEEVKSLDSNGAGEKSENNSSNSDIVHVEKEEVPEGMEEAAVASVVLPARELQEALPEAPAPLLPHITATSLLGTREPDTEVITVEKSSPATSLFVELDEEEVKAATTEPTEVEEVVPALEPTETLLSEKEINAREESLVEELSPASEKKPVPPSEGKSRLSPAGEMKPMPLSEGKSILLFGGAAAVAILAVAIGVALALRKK
UniProt Q9NSY1, whole entry, looked up: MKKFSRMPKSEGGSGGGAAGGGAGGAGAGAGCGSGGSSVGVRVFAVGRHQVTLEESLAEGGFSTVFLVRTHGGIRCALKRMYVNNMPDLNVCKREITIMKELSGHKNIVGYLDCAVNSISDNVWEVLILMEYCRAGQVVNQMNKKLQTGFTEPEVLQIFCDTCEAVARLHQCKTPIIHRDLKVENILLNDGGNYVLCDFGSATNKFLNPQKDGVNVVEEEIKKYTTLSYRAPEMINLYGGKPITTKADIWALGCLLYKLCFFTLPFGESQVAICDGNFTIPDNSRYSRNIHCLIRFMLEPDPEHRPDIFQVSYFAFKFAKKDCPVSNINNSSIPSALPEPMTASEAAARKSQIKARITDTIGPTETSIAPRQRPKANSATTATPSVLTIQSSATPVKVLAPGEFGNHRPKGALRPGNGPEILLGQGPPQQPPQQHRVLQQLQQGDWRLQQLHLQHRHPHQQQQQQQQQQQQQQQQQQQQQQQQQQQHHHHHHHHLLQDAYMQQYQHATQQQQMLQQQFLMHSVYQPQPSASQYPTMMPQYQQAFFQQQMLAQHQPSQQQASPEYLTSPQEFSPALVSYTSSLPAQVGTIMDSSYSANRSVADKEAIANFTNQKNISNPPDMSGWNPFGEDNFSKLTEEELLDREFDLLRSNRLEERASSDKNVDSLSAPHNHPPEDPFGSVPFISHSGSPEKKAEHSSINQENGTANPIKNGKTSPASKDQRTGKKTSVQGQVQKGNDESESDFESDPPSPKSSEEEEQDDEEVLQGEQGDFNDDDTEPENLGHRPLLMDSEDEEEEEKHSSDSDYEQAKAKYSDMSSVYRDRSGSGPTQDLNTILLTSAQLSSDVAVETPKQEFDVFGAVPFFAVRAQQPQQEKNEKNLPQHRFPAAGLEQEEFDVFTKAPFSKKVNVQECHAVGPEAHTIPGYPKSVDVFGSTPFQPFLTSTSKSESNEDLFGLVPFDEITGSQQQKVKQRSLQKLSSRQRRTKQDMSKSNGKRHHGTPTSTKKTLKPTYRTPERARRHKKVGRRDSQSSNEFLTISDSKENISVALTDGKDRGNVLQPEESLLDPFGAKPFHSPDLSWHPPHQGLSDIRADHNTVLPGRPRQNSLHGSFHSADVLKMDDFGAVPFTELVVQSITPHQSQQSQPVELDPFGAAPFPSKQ
UniProt P51572: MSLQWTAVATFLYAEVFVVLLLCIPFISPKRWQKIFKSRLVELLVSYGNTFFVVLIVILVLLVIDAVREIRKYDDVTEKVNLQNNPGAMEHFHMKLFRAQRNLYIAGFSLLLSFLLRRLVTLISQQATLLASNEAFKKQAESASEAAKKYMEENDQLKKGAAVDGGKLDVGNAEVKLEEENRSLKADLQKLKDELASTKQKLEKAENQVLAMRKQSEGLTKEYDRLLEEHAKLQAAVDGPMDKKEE
UniProt Q6W2J9: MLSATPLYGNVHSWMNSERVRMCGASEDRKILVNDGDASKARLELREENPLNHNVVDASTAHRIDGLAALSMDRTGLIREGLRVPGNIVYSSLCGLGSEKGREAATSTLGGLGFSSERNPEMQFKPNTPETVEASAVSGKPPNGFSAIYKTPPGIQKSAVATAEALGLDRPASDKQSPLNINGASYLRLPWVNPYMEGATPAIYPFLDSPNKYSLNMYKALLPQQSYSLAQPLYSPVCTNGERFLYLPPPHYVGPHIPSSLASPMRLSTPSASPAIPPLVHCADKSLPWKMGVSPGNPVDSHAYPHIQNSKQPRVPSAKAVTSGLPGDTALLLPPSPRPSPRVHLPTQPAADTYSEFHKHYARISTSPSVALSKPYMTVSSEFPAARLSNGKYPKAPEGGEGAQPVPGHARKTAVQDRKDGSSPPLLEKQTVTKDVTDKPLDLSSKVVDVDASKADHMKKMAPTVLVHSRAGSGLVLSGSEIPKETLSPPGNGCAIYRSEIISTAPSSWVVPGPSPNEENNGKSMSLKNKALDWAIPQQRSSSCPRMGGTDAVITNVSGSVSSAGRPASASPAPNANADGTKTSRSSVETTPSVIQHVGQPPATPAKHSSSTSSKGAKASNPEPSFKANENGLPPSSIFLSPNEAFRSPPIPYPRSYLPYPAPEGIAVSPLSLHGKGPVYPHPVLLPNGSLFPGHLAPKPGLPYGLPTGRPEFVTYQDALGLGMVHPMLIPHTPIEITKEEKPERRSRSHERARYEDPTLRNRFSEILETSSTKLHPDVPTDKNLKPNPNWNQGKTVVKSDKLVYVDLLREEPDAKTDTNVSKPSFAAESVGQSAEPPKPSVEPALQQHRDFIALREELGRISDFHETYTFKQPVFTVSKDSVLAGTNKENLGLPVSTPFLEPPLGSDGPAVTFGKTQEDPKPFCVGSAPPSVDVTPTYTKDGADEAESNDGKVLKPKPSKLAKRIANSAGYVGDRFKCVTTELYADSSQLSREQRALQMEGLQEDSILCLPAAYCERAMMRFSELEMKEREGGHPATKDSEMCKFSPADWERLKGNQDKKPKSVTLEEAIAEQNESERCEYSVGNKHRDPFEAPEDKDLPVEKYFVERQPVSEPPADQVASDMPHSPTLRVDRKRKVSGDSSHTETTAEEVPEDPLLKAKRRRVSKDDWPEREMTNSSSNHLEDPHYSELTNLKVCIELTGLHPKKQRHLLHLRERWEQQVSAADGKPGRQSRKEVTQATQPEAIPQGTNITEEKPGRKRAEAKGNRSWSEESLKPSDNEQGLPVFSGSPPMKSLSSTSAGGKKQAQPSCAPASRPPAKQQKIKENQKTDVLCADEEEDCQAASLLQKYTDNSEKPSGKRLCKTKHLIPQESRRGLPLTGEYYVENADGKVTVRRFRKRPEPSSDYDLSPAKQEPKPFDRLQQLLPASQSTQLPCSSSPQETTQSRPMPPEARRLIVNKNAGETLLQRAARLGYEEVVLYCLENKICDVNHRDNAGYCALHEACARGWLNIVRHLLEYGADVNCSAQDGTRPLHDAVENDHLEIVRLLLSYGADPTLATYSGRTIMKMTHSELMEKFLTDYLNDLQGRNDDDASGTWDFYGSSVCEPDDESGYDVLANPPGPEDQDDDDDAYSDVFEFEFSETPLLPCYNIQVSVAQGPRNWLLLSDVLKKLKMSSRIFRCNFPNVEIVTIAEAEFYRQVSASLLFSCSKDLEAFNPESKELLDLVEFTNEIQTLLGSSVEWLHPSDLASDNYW

Tests used:
Test in all cases: log2 fold change, soluble protein after heating vs DMSO (PISA); higher = thermal stabilisation; K562 lysate, 10 uM; active = over 0.2 and 3.5 SD of the protein, either way, in both replicates (recomputed)
nilotinib = compound: Cc1cn(-c2cc(NC(=O)c3ccc(C)c(Nc4nccc(-c5cccnc5)n4)c3)cc(C(F)(F)F)c2)cn1 [nilotinib]
Procedure, shortened: (§1)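 To prepare the extract, K562 pellets were dounce-homogenised in PBS pH 7.4 with 1 mM MgCl2, giving crude material at 1 mg/mL protein. This was treated with 10 μM compound for 30 min, then heated in aliquots for 3 min over 48°C-58°C before pooling and addition of NP-40 to 0.5% at 4°C. Centrifugation at 21,000xg for 90 min left soluble protein in the supernatant, which TMTpro 16plex LC-MS/MS quantified with equalised channel sums. Results are log-two fold changes in thermal stability compared with solvent controls, from duplicates.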

[1] = compound: Cc1nc(Nc2n[nH]c3c2CN(C(=O)N[C@H](CN(C)C)c2ccccc2)C3(C)C)c2sccc2n1
Procedure, shortened: as §1

dasatinib = compound: Cc1nc(Nc2ncc(C(=O)Nc3c(C)cccc3Cl)s2)cc(N2CCN(CCO)CC2)n1 [dasatinib]
Procedure, shortened: as §1

[2] = compound: Cc1ncc(-c2ccnc(Nc3ccc(S(C)(=O)=O)cc3)n2)n1C(C)C
Procedure, shortened: as §1

[3] = compound: Cn1cc(-c2ccc3c(c2)CCN3C(=O)Cc2cccc(C(F)(F)F)c2)c2c(N)ncnc21
Procedure, shortened: as §1

quisinostat = compound: Cn1cc(CNCC2CCN(c3ncc(C(=O)NO)cn3)CC2)c2ccccc21 [quisinostat]
Procedure, shortened: as §1

tipifarnib = compound: Cn1cncc1[C@@](N)(c1ccc(Cl)cc1)c1ccc2c(c1)c(-c1cccc(Cl)c1)cc(=O)n2C [tipifarnib]
Procedure, shortened: as §1

[4] = compound: NC(=O)Nc1cc(-c2cccc(F)c2)sc1C(=O)N[C@H]1CCCNC1
Procedure, shortened: as §1

[5] = compound: NC(=O)c1cnc(N[C@@H]2CCCC[C@@H]2N)nc1Nc1cccc(-n2nccn2)c1
Procedure, shortened: as §1

[6] = compound: NC1(c2ccc(-c3nc4ccn5c(=O)[nH]nc5c4cc3-c3ccccc3)cc2)CCC1
Procedure, shortened: as §1

Measured: log2 fold change

BNIP1 (UniProt Q12981)
inactive: nilotinib -0.004 | [1] -0.037 | dasatinib -0.005 | [2] -0.028 | [3] -0.045 | quisinostat -0.014 | tipifarnib -0.046 | [4] -0.034 | [5] -0.033 | [6] 0.057

BRMS1 (UniProt Q9HCU9)
inactive: nilotinib -0.042 | [1] 0.13 | dasatinib 0.022 | [2] -0.037 | [3] -0.005 | quisinostat 0.099 | tipifarnib 0.008 | [4] 0.106 | [5] 0.002 | [6] -0.041

BST2 (UniProt Q10589)
inactive: nilotinib 0.066 | [1] -0.02 | dasatinib 0.025 | [2] 0.009 | [3] 0.018 | quisinostat -0.02 | tipifarnib 0.053 | [4] 0.06 | [5] -0.014 | [6] 0.044

BIRC5 (UniProt O15392)
inactive: nilotinib -0.035 | [1] 0.058 | dasatinib -0.048 | [2] 0.065 | [3] -0.049 | quisinostat 0.073 | tipifarnib -0.015 | [4] -0.041 | [5] -0.013 | [6] 0

BABAM1 (UniProt Q9NWV8)
inactive: nilotinib 0.023 | [1] -0.034 | dasatinib 0.004 | [2] 0.005 | [3] 0.035 | quisinostat 0.001 | tipifarnib 0.044 | [4] 0.006 | [5] 0.003 | [6] 0.024

BAG1 (UniProt Q99933)
inactive: nilotinib 0.007 | [1] -0.008 | dasatinib 0.163 | [2] 0.045 | [3] 0.023 | quisinostat -0.018 | tipifarnib 0.029 | [4] 0.003 | [5] -0.029 | [6] -0.024

BANP (UniProt Q8N9N5)
inactive: nilotinib 0.077 | [1] -0.147 | dasatinib -0.014 | [2] 0.013 | [3] -0.065 | quisinostat -0.027 | tipifarnib 0.064 | [4] 0.057 | [5] 0.052 | [6] 0.014

BPNT1 (UniProt O95861)
inactive: nilotinib 0.012 | [1] -0.016 | dasatinib -0.009 | [2] 0.01 | [3] -0.023 | quisinostat 0.044 | tipifarnib 0.005 | [4] -0.065 | [5] 0.006 | [6] 0.026

BAG5 isoform 2 (UniProt Q9UL15)
inactive: nilotinib 0.039 | [1] 0.023 | dasatinib -0.012 | [2] 0 | [3] 0.008 | quisinostat -0.049 | tipifarnib 0.021 | [4] 0.01 | [5] -0.001 | [6] -0.01

BAG4 (UniProt O95429)
inactive: nilotinib -0.154 | [1] -0.039 | dasatinib 0.027 | [2] 0.014 | [3] 0.015 | quisinostat 0.019 | tipifarnib -0.011 | [4] 0.01 | [5] 0.018 | [6] 0.038

BOP1 (UniProt Q14137)
inactive: nilotinib -0.009 | [1] 0.004 | dasatinib -0.022 | [2] 0.005 | [3] -0.006 | quisinostat -0.02 | tipifarnib 0.008 | [4] 0.01 | [5] 0.02 | [6] 0.002

BICD2 isoform 2 (UniProt Q8TD16)
inactive: nilotinib 0 | [1] 0 | dasatinib 0.016 | [2] 0.002 | [3] 0.025 | quisinostat -0.012 | tipifarnib 0.004 | [4] -0.024 | [5] 0.004 | [6] 0.007

2 records drawn at random from the list so far:
BAG5 isoform 2 (UniProt Q9UL15)
inactive: nilotinib 0.039 | [1] 0.023 | dasatinib -0.012 | [2] 0 | [3] 0.008 | quisinostat -0.049 | tipifarnib 0.021 | [4] 0.01 | [5] -0.001 | [6] -0.01

BICD2 isoform 2 (UniProt Q8TD16)
inactive: nilotinib 0 | [1] 0 | dasatinib 0.016 | [2] 0.002 | [3] 0.025 | quisinostat -0.012 | tipifarnib 0.004 | [4] -0.024 | [5] 0.004 | [6] 0.007

Carrying on:

BRAP (UniProt Q7Z569)
inactive: nilotinib -0.008 | [1] 0 | dasatinib 0.005 | [2] 0.04 | [3] 0.015 | quisinostat -0.035 | tipifarnib -0.022 | [4] 0.023 | [5] -0.017 | [6] 0.01

BAP1 (UniProt Q92560)
inactive: nilotinib 0.034 | [1] -0.026 | dasatinib -0.014 | [2] -0.025 | [3] 0.024 | quisinostat 0.033 | tipifarnib -0.046 | [4] 0.107 | [5] 0.021 | [6] -0.007

BCKDHA (UniProt P12694)
inactive: nilotinib 0.064 | [1] -0.007 | dasatinib -0.031 | [2] 0.019 | [3] -0.023 | quisinostat 0.077 | tipifarnib 0.017 | [4] -0.042 | [5] 0.041 | [6] -0.006

BROX (UniProt Q5VW32)
inactive: nilotinib 0.031 | [1] -0.042 | dasatinib -0.031 | [2] -0.004 | [3] 0.004 | quisinostat 0.001 | tipifarnib -0.005 | [4] 0.007 | [5] -0.015 | [6] 0.008

BCL2L13 (UniProt Q9BXK5)
inactive: nilotinib -0.026 | [1] 0.03 | dasatinib 0.016 | [2] 0.018 | [3] -0.002 | quisinostat -0.007 | tipifarnib 0.001 | [4] -0.024 | [5] 0.012 | [6] -0.022

BMP2K (UniProt Q9NSY1)
inactive: nilotinib -0.015 | [1] 0.597 | dasatinib 0.084 | [2] 0.538 | [3] -0.026 | quisinostat -0.112 | tipifarnib -0.025 | [4] 0.748 | [5] 0.109 | [6] -0.011

BCLAF1 (UniProt Q9NYF8)
inactive: nilotinib 0.012 | [1] 0.07 | dasatinib 0.019 | [2] -0.01 | [3] 0.053 | quisinostat 0.103 | tipifarnib -0.005 | [4] -0.042 | [5] -0.011 | [6] -0.051

BPTF (UniProt Q12830)
inactive: nilotinib -0.039 | [1] -0.011 | dasatinib -0.018 | [2] -0.059 | [3] 0.004 | quisinostat -0.018 | tipifarnib -0.012 | [4] 0.03 | [5] 0.016 | [6] -0.002

BLOC1S5 (UniProt Q8TDH9)
inactive: nilotinib 0.033 | [1] -0.019 | dasatinib -0.001 | [2] -0.003 | [3] -0.005 | quisinostat 0.003 | tipifarnib 0.036 | [4] -0.017 | [5] -0.002 | [6] 0.015

BOLA3 (UniProt Q53S33)
inactive: nilotinib 0.031 | [1] 0.056 | dasatinib 0.021 | [2] 0.007 | [3] 0.015 | quisinostat 0.085 | tipifarnib -0.017 | [4] 0.019 | [5] -0.028 | [6] 0.032

BRAT1 (UniProt Q6PJG6)
inactive: nilotinib 0.031 | [1] -0.016 | dasatinib -0.046 | [2] 0.01 | [3] 0.046 | quisinostat -0.07 | tipifarnib 0 | [4] 0.008 | [5] 0.047 | [6] -0.017

BCAP31 isoform 2 (UniProt P51572)
inactive: nilotinib 0.004 | [1] 0.001 | dasatinib 0.016 | [2] 0.007 | [3] -0.013 | quisinostat 0.096 | tipifarnib 0.008 | [4] -0.023 | [5] -0.003 | [6] 0.014

BCOR (UniProt Q6W2J9)
inactive: nilotinib -0.128 | [1] 0.114 | dasatinib -0.04 | [2] 0.033 | [3] 0.117 | quisinostat -0.327 | tipifarnib 0.072 | [4] 0.095 | [5] 0 | [6] 0

BLMH (UniProt Q13867)
inactive: nilotinib -0.002 | [1] -0.024 | dasatinib 0.04 | [2] -0.025 | [3] -0.006 | quisinostat -0.044 | tipifarnib -0.033 | [4] 0 | [5] -0.017 | [6] 0.025

BTF3 (UniProt P20290)
inactive: nilotinib -0.013 | [1] 0.019 | dasatinib 0 | [2] -0.014 | [3] -0.002 | quisinostat 0.004 | tipifarnib 0.03 | [4] -0.018 | [5] -0.022 | [6] -0.005

BPHL (UniProt Q86WA6)
inactive: nilotinib -0.049 | [1] 0.084 | dasatinib 0.008 | [2] -0.043 | [3] 0.055 | quisinostat -0.02 | tipifarnib 0.01 | [4] -0.03 | [5] 0.016 | [6] 0.022

BCS1L (UniProt Q9Y276)
inactive: nilotinib -0.017 | [1] -0.002 | dasatinib -0.05 | [2] 0.051 | [3] 0.053 | quisinostat 0.013 | tipifarnib -0.019 | [4] 0.019 | [5] 0.03 | [6] 0.027

BLM (UniProt P54132)
inactive: nilotinib -0.002 | [1] 0.014 | dasatinib -0.013 | [2] 0 | [3] 0.048 | quisinostat 0.109 | tipifarnib 0.041 | [4] -0.013 | [5] -0.025 | [6] 0.018
